Laboratory results as given in PubChem BioAssay AID1487 (National Center for Advancing Translational Sciences (NCATS), 2009).
The other results are listed elsewhere or left out. These are further read-outs of the screen, such as a control signal, another cell line or another target. No call is given for them. Most of these compounds were active or inconclusive in the main read-out, so they are no random draw. Potencies come from curve fits of mixed quality, noted in brackets.

Assay: qHTS Assay for Modulators of Lamin A Splicing
Conditions: HeLa LMNA splicing GFP/RFP minigene ratio, 48 h
Outline: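 S3 HeLa stable clones carrying a lamin A-EGFP splicing minigene plus DsRed2 were seeded at 600 cells/well in Opti-MEM with 2% FBS, pin-dosed and incubated 48 h at 37°C. Acumen cytometry (488 nm) gave the GFP/RFP total-intensity ratio.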

[1] = measured here: GFP splicing reporter channel
[2] = measured here: RFP viability control channel

SMILES | AC50 [1] | AC50 [2]
O=c1cc(CN2CCN(c3cccc(Cl)c3)CC2)c2cc(O)c(-c3ccccc3)cc2o1 | 35.5 µM [falling, single point] | –
CCOc1ccc(NC(=O)c2c(NCc3sccc3C)sc3c2CCCCC3)cc1 | 1.12 µM [rising, partial curve, poor fit] | 35.5 µM [rising, partial curve]
COc1ccc(CCNC(=O)COc2ccc(S(=O)(=O)NC3CCCCC3)cc2Cl)cc1OC | 31.6 µM [rising, single point] | 28.2 µM [rising, single point]
Cc1c(NS(=O)(=O)c2ccc3c(c2)Cc2ccccc2-3)c(=O)n(-c2ccccc2)n1C | 0.0708 µM [rising, full curve, poor fit] | 5.01 µM [rising, partial curve, poor fit]
CC(=O)Nc1cccc(NC(=O)CSc2ccc(-c3cccnc3)nn2)c1 | 35.5 µM [falling, partial curve, poor fit] | 1.58 µM [falling, partial curve, poor fit]
CCCOc1ccc(C(=O)N2CCN(c3ccc(NC(=O)CC)cc3Cl)CC2)cc1 | – | 12.6 µM [rising, single point]
Cc1ccc(Cn2c(=N)n(CC(O)COc3ccccc3)c3ccccc32)cc1 (stereo unspecified) | – | 20 µM [rising, single point]
O=C(CSc1nc2c([nH]c3ccccc32)c(=O)n1-c1ccc(F)cc1)NC1CCCCC1 | 22.4 µM [falling, single point] | 22.4 µM [falling, partial curve]
CCOn1c(=O)c(-c2ccc(OC)c(OC)c2)[n+]([O-])c2ccccc21 | – | 0.398 µM [falling, full curve, poor fit]
O=C(CC1S/C(=N/N=C/c2c[nH]c3ccccc23)NC1=O)Nc1ccccc1 (stereo unspecified) | 15.8 µM [rising, partial curve, poor fit] | –
CSc1ccc(CCNC(=O)c2ccc(CS(=O)(=O)c3ccc(Br)cc3)o2)cc1 | – | 1 µM [falling, full curve]
COc1ccc2cc(C#N)c(SCC(=O)NNC(=O)Cc3ccccc3)nc2c1 | – | 35.5 µM [falling, single point]
Cc1nn(Cc2c(Cl)cccc2Cl)c(C)c1NC(=O)c1cc(C(C)C)on1 | 11.2 µM [falling, partial curve] | 35.5 µM [falling, single point]
Nc1nc(SCC(=O)Nc2cccc(Oc3ccccc3)c2)n[nH]1 | – | 31.6 µM [rising, single point]
O=C(CN1C(=O)c2ccccc2S1(=O)=O)NC(Nc1ccccc1F)C(Cl)(Cl)Cl (stereo unspecified) | 0.0447 µM [falling, full curve, poor fit] | 0.0501 µM [falling, full curve]
Fc1ccc(CSc2nnc3ccc(-c4ccncc4)nn23)cc1 | 0.00891 µM [rising, full curve, poor fit] | –
CCc1ccc2nc(SCC(=O)N(CC)CC)c(C#N)cc2c1 | – | 17.8 µM [rising, single point]
O=C1N(Cc2cccc(C(F)(F)F)c2)c2ccccc2S(=O)(=O)N1c1cccc(Cl)c1 | – | 2 µM [rising, single point]
COc1ccc(CNC(=O)c2cc3cc(S(=O)(=O)N4CCCCC4)ccc3n2C)c(OC)c1 | 0.0224 µM [rising, full curve, poor fit] | –
Nc1c(C(=O)C2CC2)sc2nc3c(cc12)CCC3 | – | 0.794 µM [falling, partial curve, poor fit]
COc1ccc(NS(=O)(=O)c2cc3c(cc2C)NC(=O)CO3)c(OC)c1 | 6.31 µM [rising, partial curve, poor fit] | –
CCc1ccc(-c2nc(-c3ccncc3)no2)cc1 | 12.6 µM [rising, partial curve, poor fit] | 10 µM [rising, partial curve, poor fit]
O=C(c1ccco1)c1cn[nH]c1-c1ccc(Cl)cc1O | – | 12.6 µM [rising, partial curve, poor fit]
CCc1ccc(NC(=O)c2ccc(C3SCC(=O)N3CCc3ccccc3)cc2)cc1 (stereo unspecified) | – | 7.94 µM [rising, partial curve]
C/C(=N\NC(=O)c1ccc(C)cc1C)c1ccc2c(c1)Nc1ccccc1S2 | 15.8 µM [rising, single point] | 17.8 µM [rising, single point]
Cc1ccc(C(=O)c2cc3c(cc2N)OCCO3)cc1 | – | 31.6 µM [rising, partial curve]
CN(C)c1nc(N)c(C(=O)N=C(N)N)nc1Cl | – | 0.000891 µM [falling, full curve, poor fit]

Laid out differently: entries from further up
SMILES	AC50 [1]	AC50 [2]
Nc1nc(SCC(=O)Nc2cccc(Oc3ccccc3)c2)n[nH]1	–	31.6 µM [rising, single point]
O=C(CN1C(=O)c2ccccc2S1(=O)=O)NC(Nc1ccccc1F)C(Cl)(Cl)Cl (stereo unspecified)	0.0447 µM [falling, full curve, poor fit]	0.0501 µM [falling, full curve]
